From patent US20120028271A1
Results are given in words; binding and its absence hold for the method and conditions named. In cells and extracts the contact can be indirect. Some binding calls cover weakened binding; strength is not graded here. Tags and fused reporters may be left off the sequences shown.

The chains behind the UniProt entries cited, without tags or fusion partners.
UniProt P54252: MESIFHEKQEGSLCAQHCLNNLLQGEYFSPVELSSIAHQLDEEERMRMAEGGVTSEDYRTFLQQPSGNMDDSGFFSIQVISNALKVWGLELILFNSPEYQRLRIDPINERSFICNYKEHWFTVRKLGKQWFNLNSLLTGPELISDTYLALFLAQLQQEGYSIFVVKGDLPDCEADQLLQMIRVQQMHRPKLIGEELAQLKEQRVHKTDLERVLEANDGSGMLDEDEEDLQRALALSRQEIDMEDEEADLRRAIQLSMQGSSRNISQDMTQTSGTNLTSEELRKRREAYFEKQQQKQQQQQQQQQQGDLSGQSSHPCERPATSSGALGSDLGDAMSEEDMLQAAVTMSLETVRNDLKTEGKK

B1: GST-UbL-A^1-78 (UbL domain of hHR23A ending in Val-Val-Val-Met-Val-Thr-Lys) (protein, not shown: a dimerising Fc or GST)
chain: MAVTITLKTLQQQTFKIRMEPDETVKVLKEKIEAEKGRDAFPVAGQKLIYAGKILSDDVPIRDYRIDEKNFVVVMVTK
B2: GST-UbL-A (UbL domain of human hHR23A, residues 1-79) (protein, not shown: a dimerising Fc or GST)
chain: MAVTITLKTLQQQTFKIRMEPDETVKVLKEKIEAEKGRDAFPVAGQKLIYAGKILSDDVPIRDYRIDEKNFVVVMVTKT

Legend:
[1] = target: Ataxin-3 (UniProt P54252); test: GST pull-down from cell extracts, immunoblot
[2] = target: Ataxin-3 (UniProt P54252); test: GST pull-down from cell extracts, immunoblot with antibodies against Ataxin-3

Row | Binder | binding [1] | binding [2]
1 | B1 | binds | –
2 | B2 | binds | binds
